# Test results from PubChem BioAssay AID504467 (National Center for Advancing Translational Sciences (NCATS), 2011).
# In all, about 330,000 compounds went through this assay and about 7,700 (2.3%) were called active. The inconclusive results got no clear call from the source; some entries with a clear call stand among them for comparison. Calls come from the whole dose curve; as a rule, active = well fitted inhibition curve with a large enough effect; inconclusive = small, poorly fitted or top-dose-only effect, or effect the other way; inactive = flat fitted curve, though single readings scatter. A potency beside an inconclusive call is a rough fit, not a confirmed value.
# Assay: qHTS screen for small molecules that inhibit ELG1-dependent DNA repair in human embryonic kidney (HEK293T) cells expressing luciferase-tagged ELG1; note: nearly all actives have a fitted effect of over 55% in size
# Conditions: HEK293T ELG1-luciferase reporter, luminescence, 16 h, DNA damage induced by 5-fluorouridine; series mostly up to 46.1 µM
# Method in brief: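 Luminescence from the luciferase reporter, measured 30 min after ONE-Glo reagent at room temperature, was the read-out. Beforehand, 2,000 cells per well were exposed for 16 hr at 37 °C to 5-fluorouridine together with compound or vehicle.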
# Potency is the fitted concentration of half-maximal effect.
row,Compound,Potency
1,CCc1ccccc1NC(=O)CN1CCN(C(=O)C2CCN(C(=O)/C=C/c3ccccc3)CC2)CC1,"inconclusive: 23.1 µM [inhibitor, single point]"
2,CCN(CC)c1nc(N2CCOCC2)nc2ccccc12,"inconclusive: 18.3 µM [inhibitor, single point]"
3,Cc1cc(C)cc(NC(=O)COC(=O)Cc2ccccc2F)c1,inactive
4,CC(C)C(=O)Nc1ccc(N2CCCC2)c(Cl)c1,"inconclusive: 23.1 µM [activator, partial curve]"
5,Cc1ccc(NC(=O)c2nc[nH]c2C(=O)N[C@@H](C)c2ccccc2)cc1,"inconclusive: 25.9 µM [inhibitor, partial curve, poor fit]"
6,N#C/C(=C/c1ccc(Oc2ccc([N+](=O)[O-])cn2)cc1)C(=O)N1CCOCC1,"inconclusive: 5.17 µM [inhibitor, full curve]"
7,O=S(=O)(NC1=NCCC1)c1cccc(NC(=S)NCCc2ccccc2)c1,inactive
8,O=C(COC(=O)C(c1ccccc1)c1ccccc1)NCc1ccco1,inactive
9,CCCS(=O)(=O)c1c(S(=O)(=O)CCC)c2c(N)cccn2c1C(=O)c1ccc(Br)cc1,"inconclusive: 29.1 µM [inhibitor, single point]"
10,CCOC(=O)c1[nH]c(C)c(C(=O)Nc2ccc(C)c(C)c2)c1C,inactive
11,Nc1nc(SCc2ccc(Cl)c(Cl)c2)n[nH]1,"inconclusive: 16.4 µM [activator, partial curve, poor fit]"
12,O=C(CCCCCn1c(=S)[nH]c2cc3c(cc2c1=O)OCO3)N1CCN(C(=O)c2ccco2)CC1,inactive
13,O=C(Nc1ccc2c(c1)OCO2)C1CC(c2ccccc2Cl)=NO1 (centres undefined),inactive
14,C/C=C/c1ccc(OCC(=O)Nc2cc(Cl)ccc2-n2cncn2)c(OC)c1,"inconclusive: 13 µM [inhibitor, single point]"
15,C[C@H](CO)N1C[C@H](C)[C@@H](CN(C)S(C)(=O)=O)Oc2ccc(NS(=O)(=O)c3cn(C)cn3)cc2C1=O,inactive
16,CN(C)c1cc(-c2ccc(Br)cc2)oc(=O)c1Cl,"inconclusive: 18.3 µM [inhibitor, partial curve]"
17,Cc1cccc2cc(CN(CC3CCCO3)C(=S)Nc3ccccc3)c(=O)[nH]c12 (centres undefined),active: 16.4 µM
18,COc1nc(N)c(C#N)c(-c2ccc(N(C)CCC#N)cc2)c1C#N,active: 16.4 µM
19,CCOC(=O)Nc1sc(C)c(C)c1C(=O)OCC,inactive
20,Cc1ccc(C(=O)C(C)OC(=O)CNC(=O)c2ccc(Br)o2)cc1 (centres undefined),"inconclusive: 3.55 µM [activator, full curve]"
21,O=C(CN(C(=O)CCC(=O)Nc1nccs1)c1ccccc1F)NCc1ccccc1,inactive
22,CCCCOC(=O)c1ccc(N2C(=O)CC(N3CCN(C/C=C/c4ccccc4)CC3)C2=O)cc1 (centres undefined),"inconclusive: 14.6 µM [inhibitor, partial curve, poor fit]"

row,Compound,Potency
1,Cc1nc(-c2ccc(S(=O)(=O)Oc3ccccc3Cl)s2)cs1,"inconclusive: 0.82 µM [inhibitor, full curve]"
2,Cc1[nH]n(C(N)=S)c(=O)c1N=Nc1cc(C(F)(F)F)ccc1Cl,inactive
3,Cc1ccccc1NC(=O)c1cc(C(=O)c2cc(Cl)ccc2O)cn(-c2ccccc2C)c1=O,active: 20.6 µM
4,COc1ccc(CCNC(=O)COC(=O)c2cncc(Br)c2)cc1OC,"inconclusive: 7.3 µM [activator, partial curve, poor fit]"
5,CCCCCCC1CC(CSC(=N)N)OC1=O (centres undefined),"inconclusive: 11.6 µM [inhibitor, partial curve]"
6,Fc1ccccc1COc1ccc(C(=S)N2CCCC2)cc1,"inconclusive: 14.6 µM [activator, partial curve]"
7,COc1ccc(-c2[nH]c(-c3ccc(Cl)cc3)nc2SCC(=O)Nc2nccs2)cc1,"inconclusive: 29.1 µM [inhibitor, single point]"
8,COc1ccc(/C=N/Nc2ccc(C(=O)O)cc2)cc1Br,"inconclusive: 0.184 µM [activator, full curve, poor fit]"
9,Cc1cc(C)n2nc(SCc3nnc(-c4ccccc4Br)o3)nc2n1,inactive
10,CC(C)Cc1nnc(NC(=O)c2ccc3c(c2)OCCO3)s1,"inconclusive: 1.03 µM [activator, full curve]"
11,CN(C)c1ccc(C(C(=O)NCc2ccccc2)N(Cc2cccnc2)C(=O)c2snc(C(N)=O)c2N)cc1 (centres undefined),"inconclusive: 14.6 µM [inhibitor, partial curve, poor fit]"
12,CCOc1ccc(N(CC(=O)NCC(C)C)S(C)(=O)=O)cc1,"inconclusive: 0.206 µM [activator, full curve, poor fit]"
13,CC(C)Oc1cccc(C(=O)C2CCCN(C(=O)c3noc4c3CCCC4)C2)c1 (centres undefined),"inconclusive: 23.1 µM [inhibitor, single point]"
14,Cc1sc2nc(COC(=O)c3ccc(Cl)c(N)c3)[nH]c(=O)c2c1C,"inconclusive: 14.6 µM [inhibitor, partial curve, poor fit]"
15,Cc1ccc(NC(=O)CN(C)CC(=O)Nc2ccc(N3CCOCC3)cc2)cc1F,"inconclusive: 29.1 µM [inhibitor, single point]"
16,O=C(OCC(=O)c1cccs1)c1cccc(C(=O)OCC(=O)c2cccs2)n1,inactive
17,CCCCn1c(=O)[nH]c(=O)c2c1nc(-c1cc(Br)ccc1OC)n2C,"inconclusive: 14.6 µM [inhibitor, partial curve]"
18,COc1ccc(C(=O)/C=C(\C)Nc2ccc(NC(C)=O)cc2)cc1,"inconclusive: 29.1 µM [activator, single point]"
19,CCN(CC)c1ccc(/C=C(\C#N)c2ccccn2)cc1,"inconclusive: 0.58 µM [activator, partial curve]"
20,CCc1ccc([C@@H]2CC=C(C(=O)O)CN2S(=O)(=O)c2ccc(C)cc2)cc1,inactive
21,C[C@]12CCC[C@H](O1)[C@H]([C@@H](O)c1ccccc1)O2,"inconclusive: 23.1 µM [activator, partial curve, poor fit]"
22,N#Cc1ccc(CSc2nnc(-c3cccs3)n2-c2ccccc2)cc1,active: 20.6 µM

# In the list so far, 3 have a furan ring, fused or not:
row,Compound,Potency
8,O=C(COC(=O)C(c1ccccc1)c1ccccc1)NCc1ccco1,inactive
12,O=C(CCCCCn1c(=S)[nH]c2cc3c(cc2c1=O)OCO3)N1CCN(C(=O)c2ccco2)CC1,inactive
20,Cc1ccc(C(=O)C(C)OC(=O)CNC(=O)c2ccc(Br)o2)cc1 (centres undefined),"inconclusive: 3.55 µM [activator, full curve]"
